# From PubChem BioAssay AID445 (National Center for Advancing Translational Sciences (NCATS), 2006)
# This is one part of the list. These are further read-outs of the screen, such as a control signal, another cell line or another target. No call is given for them. The list favours compounds with an active or inconclusive main result. Words in brackets tell the shape of the fitted curve; partial curves, single points and poor fits give uncertain potencies.
# Assay: IkB Signaling
# Settings: ABC-DLBCL IkBa-CBG/CBR dual luciferase ratio (green luciferase fused to IkBa over red control in OCI-Ly3 lymphoma cells), 4 h
# Method in brief: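 In this assay, an IκBα–CBG68 fusion accumulates when IKK-driven degradation is blocked; native CBR normalizes for cell number. OCI-Ly3 cells were treated 4 h with compound and doxycycline, then green and red light read after Chroma-Glo addition.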
# [1] = measured here: control luc red channel unless noted
smiles,measurement,setting,value
CCOc1ccccc1N1CCN(S(=O)(=O)c2ccc(Cl)s2)CC1,AC50,[1],"12.6 µM [falling, partial curve]"
Cc1cc(C)cc(-n2c(SCC(=O)N3CCCCCC3)nc3c([nH]c4ccccc43)c2=O)c1,AC50,[1],"1.58 µM [rising, full curve, poor fit]"
CCS(=O)(=O)c1ncc(Cl)c(C(=O)NCc2ccccc2)n1,AC50,[1],"6.31 µM [falling, full curve]"
COc1ccc(-c2cc(=O)oc3c4c(ccc23)OCN(Cc2ccccc2)C4)cc1,AC50,[1],"39.8 µM [falling, partial curve]"
COCC(C)n1c(C)cc(C(=O)CSc2nc3ccccc3c(=O)[nH]2)c1C (stereo not drawn),AC50,[1],"15.8 µM [falling, partial curve]"
c1ccc2c(c1)oc1c(N3CCN(Cc4ccc5c(c4)OCO5)CC3)ncnc12,AC50,[1],"6.31 µM [falling, partial curve]"
O=c1c2ccccc2n2c(-c3ccccc3F)nnc2n1CCc1ccccc1,AC50,[1],"12.6 µM [falling, partial curve]"
COc1ccc(C(=O)Cn2c(Br)nc3c2c(=O)n(C)c(=O)n3C)cc1,AC50,[1],"39.8 µM [falling, single point]"
COc1cc(OC)c(N(C)C(=O)c2cc3c(=O)oc4ccccc4c3s2)cc1Cl,AC50,[1],"31.6 µM [falling, single point]"
Cc1ccc(-n2nc(C(=O)N(C)Cc3ccccc3)c3c4ccccc4n(C)c3c2=O)cc1,AC50,[1],"3.16 µM [falling, full curve]"
Cc1ccc(C(=O)N(c2ccc(C)cc2)S(=O)(=O)c2ccc(Cl)cc2)cc1,AC50,[1],"3.98 µM [falling, full curve]"
COCCn1c(C)cc(C(=O)COC(=O)c2n[nH]c3ccccc23)c1C,AC50,[1],"2.51 µM [falling, partial curve]"
CCc1ccc(N2CSC3=C(C#N)C(c4cccs4)CC(=O)N3C2)cc1 (stereo not drawn),AC50,[1],"10 µM [falling, partial curve]"
O=C(CCC1N=C2c3ccccc3N=C(SCC(=O)Nc3ccc(F)cc3)N2C1=O)NCc1cccs1 (stereo not drawn),AC50,[1],"10 µM [falling, partial curve]"
Cc1ccccc1C(=O)N(Cc1ccc(N(C)C)cc1)CC1CCCO1 (stereo not drawn),AC50,[1],"25.1 µM [falling, single point]"
CCOC(=O)c1noc2ncnc(NCc3ccccc3OC)c12,AC50,[1],"25.1 µM [falling, partial curve, poor fit]"
COc1ccccc1NC(=O)CSC1=Nc2ccccc2C2=NC(CC(=O)NCc3ccc4c(c3)OCO4)C(=O)N12 (stereo not drawn),AC50,[1],"25.1 µM [falling, single point]"
COC(=O)c1ccccc1NC(=O)C1CCCN(c2ncnc3onc(C)c23)C1 (stereo not drawn),AC50,[1],"3.16 µM [falling, partial curve]"
Cn1cccc1C(=O)NC(=O)COC(=O)Cc1coc2ccc3ccccc3c12,AC50,[1],"25.1 µM [falling, partial curve]"
CC(NS(=O)(=O)c1ccccc1)C(c1cccs1)N1CCN(c2ccccc2)CC1 (stereo not drawn),AC50,[1],"15.8 µM [falling, partial curve]"
COCc1c(C(=O)OCC(=O)N2c3ccccc3CC2C)oc2ccccc12 (stereo not drawn),AC50,[1],"31.6 µM [falling, partial curve]"
O=C(Cn1c(=O)nc(-c2ccccc2)c2cc(Cl)ccc21)NCc1ccc(Cl)cc1,AC50,[1],"15.8 µM [falling, partial curve]"
O=C(Nc1cnn(Cc2ccc(Cl)cc2Cl)c1)c1noc2c1CCc1ccccc1-2,AC50,[1],"7.94 µM [falling, full curve]"
COc1ccc(C(CC(=O)Nc2cc(OC)c(OC)c(OC)c2)N2Cc3ccccc3C2=O)cc1 (stereo not drawn),AC50,[1],"10 µM [falling, partial curve]"
COc1ccc(CCNS(=O)(=O)c2cc(-c3onc(C)c3C)ccc2OC)cc1OC,AC50,[1],"2.51 µM [rising, partial curve]"
Cc1ccc(C)c(Nc2nn3c(=O)c4cc5c(cc4nc3s2)OCO5)c1,AC50,[1],"10 µM [falling, partial curve]"
CCc1ccc(NC(=O)CSc2nc(=O)n(Cc3ccncc3)c3c2CCC3)cc1,AC50,[1],"25.1 µM [falling, partial curve]"
Cc1cc2c(cc1S(=O)(=O)CCC(=O)N1CCCCC1C)OCC(=O)N2 (stereo not drawn),AC50,[1],"25.1 µM [falling, partial curve]"
CCCCN(C)CCNC(=O)CN1C(=O)CSc2ccc(S(=O)(=O)N3CCCCC3)cc21,AC50,[1],"31.6 µM [falling, single point]"
CCOC(=O)N1CCc2c(sc(NCc3cccs3)c2C(=O)Nc2ccc(OC)cc2OC)C1,AC50,[1],"20 µM [falling, single point]"
COc1ccccc1N1CCN(S(=O)(=O)CCNC(=O)Cc2ccc(Cl)cc2)CC1,AC50,[1],"39.8 µM [falling, single point]"
COc1ccc(-c2noc(C3CCCN(C(=O)c4ccccc4OC)C3)n2)cc1OC (stereo not drawn),AC50,[1],"3.98 µM [falling, partial curve, poor fit]"
Oc1ccc(Br)cc1-c1nc2cnccn2c1NC1CCCC1,AC50,[1],"31.6 µM [falling, single point]"
Cc1ccc(CCNC(=O)c2c[nH]c3ccc(S(=O)(=O)Nc4cccc(C(F)(F)F)c4)cc3c2=O)cc1,AC50,[1],"5.01 µM [falling, partial curve]"
CCCS(=O)(=O)c1nnnn1-c1cccc(OC)c1,AC50,[1],"2.51 µM [falling, full curve]"
CCC1=C(c2ccc(C)cc2)S(=O)(=O)N=C1N1CCC(C(=O)NCCc2ccc(Cl)cc2)CC1,AC50,[1],"31.6 µM [falling, single point]"
O=S(=O)(NCCOCC(F)(F)F)c1ccc2oc3ccccc3c2c1,AC50,[1],"10 µM [falling, partial curve]"
COc1cccc(NC(=O)CSC2=Nc3ccccc3C3=NC(CC(=O)NCc4ccc5c(c4)OCO5)C(=O)N23)c1 (stereo not drawn),AC50,[1],"12.6 µM [falling, single point]"
CCCCNC(=O)c1cnc2sc(N3CCCCCC3)nn2c1=O,AC50,[1],"25.1 µM [rising, partial curve]"
COc1ccc(S(=O)(=O)Nc2ccc(O)c3ccccc23)cc1,AC50,measured here: IkB-luc green channel,"39.8 µM [rising, single point]"
same,AC50,measured here: control luc red channel,"6.31 µM [falling, partial curve]"
COc1ccc(CC(=O)N(Cc2nc(-c3ccc(C)cc3)no2)C(C)C)cc1,AC50,[1],"39.8 µM [falling, single point]"
COc1ccc(C2C(=O)N(C3CCC(C)CC3)CC(=O)N2C2CCCC2)cc1OC (stereo not drawn),AC50,[1],"39.8 µM [falling, partial curve]"
CCCCOc1ccccc1C(=O)N(Cc1cccc(F)c1)C1CCS(=O)(=O)C1 (stereo not drawn),AC50,[1],"25.1 µM [falling, single point]"
CCOc1ccc(CCNC(=O)CSc2nnnn2-c2ccc(C)cc2C)cc1OCC,AC50,[1],"39.8 µM [falling, single point]"
O=C(NCC(c1cccnc1)N1CCc2ccccc21)c1ccc(F)cc1 (stereo not drawn),AC50,[1],"25.1 µM [falling, single point]"
CCOC(=O)CCSc1nc2c(c(C(F)(F)F)c1C#N)CCC2,AC50,[1],"12.6 µM [falling, partial curve]"
CCCOC(=O)CSc1nnc(-c2cc(OC)c(OC)c(OC)c2)o1,AC50,[1],"7.94 µM [falling, partial curve]"
Cc1c(C(=O)N(Cc2ccco2)Cc2ccccc2Cl)oc2ccc(F)cc12,AC50,[1],"10 µM [falling, partial curve]"
COc1ccc(OC(C)C(=O)NCc2nc(-c3cccc(C)c3)no2)cc1 (stereo not drawn),AC50,[1],"25.1 µM [falling, partial curve]"
CCS(=O)(=O)c1ccccc1C(=O)Nc1ccc(-c2nc3ccccc3s2)cc1,AC50,[1],"1 µM [rising, full curve, poor fit]"
O=C(Nc1ccc2nc(SCCOc3ccccc3Cl)sc2c1)c1ccc2c(c1)OCO2,AC50,[1],"1 µM [falling, full curve]"
Cc1ccc(S(=O)(=O)NCc2ccc(C(=O)NCCc3cccc(C)c3)cc2)cc1,AC50,[1],"3.98 µM [rising, single point] [measured here: IkB-luc green channel]"
N#Cc1c(C(F)(F)F)cc(-c2cccs2)nc1SCC(=O)Nc1cccc(C(F)(F)F)c1,AC50,[1],"20 µM [falling, partial curve, poor fit]"
O=C(c1ccccc1Br)N1CCC(c2nc3ccccc3o2)CC1,AC50,[1],"31.6 µM [falling, single point]"
Cc1ccc(Cn2c(=O)n(-c3cc(C)cc(C)c3)c(=O)c3oc4ccccc4c32)cc1,AC50,[1],"12.6 µM [falling, partial curve]"
CN1C(=O)C(C)(C)c2cc(S(=O)(=O)N3CCCC3C(=O)Nc3ccc(F)cc3)ccc21 (stereo not drawn),AC50,[1],"15.8 µM [falling, partial curve]"
COc1cc(Cl)c(C)cc1NC(=O)c1sc2nc(C)cc(C)c2c1N,AC50,[1],"2.51 µM [falling, full curve]"
Cc1ccsc1CN(C(=O)COc1cccc(C)c1C)C1CCS(=O)(=O)C1 (stereo not drawn),AC50,[1],"15.8 µM [falling, partial curve]"
COc1ccccc1NC(=O)C(Cc1ccccc1)NS(=O)(=O)c1cccc2nsnc12 (stereo not drawn),AC50,[1],"12.6 µM [falling, partial curve]"
CCCCOC(=O)c1cccc(NC(=O)/C=C/c2ccccc2Cl)c1,AC50,[1],"7.94 µM [falling, full curve]"
O=C(Cn1c(SCC(=O)Nc2ccc(F)cc2)nc2ccccc21)NCc1ccccc1Cl,AC50,[1],"31.6 µM [falling, partial curve]"
COc1ccc(OC)c(NC(=O)CSc2nc3ccccc3c(=O)n2CCC(=O)NC2CCCCC2)c1,AC50,[1],"0.00501 µM [rising, full curve, poor fit]"

# An excerpt of these results, with bars between the fields:
smiles | measurement | setting | value
COc1ccc(-c2cc(=O)oc3c4c(ccc23)OCN(Cc2ccccc2)C4)cc1 | AC50 | [1] | 39.8 µM [falling, partial curve]
Cc1cc2c(cc1S(=O)(=O)CCC(=O)N1CCCCC1C)OCC(=O)N2 (stereo not drawn) | AC50 | [1] | 25.1 µM [falling, partial curve]
CCOC(=O)N1CCc2c(sc(NCc3cccs3)c2C(=O)Nc2ccc(OC)cc2OC)C1 | AC50 | [1] | 20 µM [falling, single point]
CCOC(=O)CCSc1nc2c(c(C(F)(F)F)c1C#N)CCC2 | AC50 | [1] | 12.6 µM [falling, partial curve]
